Experimental findings from PubChem BioAssay AID282 (DTP/NCI, 2004) are described below.

The list shows only some results of the screen, not a fair sample: it gathers tests that were run many times, whatever their T/C, doses with no T/C, and many T/C values between a quarter and a half above the control. Further doses and runs are listed elsewhere. T/C is the treated group as % of the vehicle group. Some doses have a count of surviving animals in place of a T/C: the source holds a T/C of zero for them, seemingly a mark for toxic or unscored doses. Some doses without a T/C left all or most animals alive at the check, yet need not have been tolerated: the source hardly ever lists a survival T/C far under the control, and the zero likely stands for such cases as well. Survivors were counted at the toxicity check, usually on the fifth day, unless a day is given; later deaths do not show. Schedules are NCI's codes, taken here to give the interval after Q, in days (D) or hours (H), and the number of doses after X. Some doses were run more than once; the values are given in rising order. Some schedule codes hold Z or #, which are not explained here. Where survival is the endpoint, this PubChem deposit counts one and a half times the control or more as active, and values a quarter to a half above the control carry no call in these data; other NCI protocols may use other cut-offs. Some T/C values are followed by the survivors on the day toxicity was checked, most often the fifth; where none is given, no animal had died by that day. Marks such as (2×) say how often a value occurs here.

For the test, the system named is BDF1 mice, L1210 terephthalanilide-resistant leukemia ip, survival T/C. The test is described as follows: NCI In Vivo Anticancer Drug Screen. Data for tumor model L1210 Leukemia resistant to A Terephthalanilide; NSC 38280 (intraperitoneal) in B6D2F1 (BDF1) mice. The following applies: T/C endpoint: mean survival time, higher T/C = longer survival. How it is done: The antitumor activity of compounds was measured in mice bearing transplantable tumors. Survival or tumor size were measured and the results are expressed as the measurement made in the treated group (T) divided by the measurement made in the vehicle treated control group (C). The tumor model used in this assay is L1210 Leukemia resistant to A Terephthalanilide; NSC 38280 (intraperitoneal) in B6D2F1 (BDF1) mice

The mark [1] stands for this setting: dose: 1.25 mg/kg/injection, schedule: Q01DX Z (ip), vehicle: carboxymethylcellulose (CMC).
The mark [2] stands for this setting: dose: 6.0 mg/kg/injection, schedule: Q01DX Z (ip), vehicle: carboxymethylcellulose (CMC).
Setting [3] is: dose: 6.25 mg/kg/injection, schedule: Q01DX Z (ip), vehicle: carboxymethylcellulose (CMC).
[4] abbreviates: dose: 50.0 mg/kg/injection, schedule: Q01DX Z (ip), vehicle: carboxymethylcellulose (CMC).
[5] abbreviates: dose: 45.0 mg/kg/injection, schedule: Q01DX010 (ip), vehicle: saline.
Where [6] appears, read: dose: 25.0 mg/kg/injection, schedule: Q01DX Z (ip), vehicle: carboxymethylcellulose (CMC).
The mark [7] stands for this setting: dose: 100.0 mg/kg/injection, schedule: Q01DX Z (ip), vehicle: carboxymethylcellulose (CMC).
Where [8] appears, read: dose: 250.0 mg/kg/injection, schedule: Q01DX010 (ip), vehicle: saline.

As for `CCOC(N)=O`, the survivor count is 4 of 6 and 5 of 6 (dose: 1000.0 mg/kg/injection, schedule: Q01DX010 (ip), vehicle: saline); 1 of 6 (dose: 1500.0 mg/kg/injection, schedule: Q01DX Z (ip), vehicle: saline); 0 of 6 (dose: 2000.0 mg/kg/injection, schedule: Q01DX Z (ip), vehicle: saline).
On to `NC(Cc1ccc(N(CCCl)CCCl)cc1)C(=O)O` (stereo not drawn), for which the T/C was 148 % of control under setting [1]; 147 % of control (dose: 3.0 mg/kg/injection, schedule: Q01DX Z (ip), vehicle: carboxymethylcellulose (CMC)); 141 % of control under setting [2]; 132 % of control (dose: 10.0 mg/kg/injection, schedule: Q01DX010 (ip), vehicle: saline). Besides, the survivor count (dose: 20.0 mg/kg/injection, schedule: Q01DX010 (ip), vehicle: saline) is on record as 5 of 6.
In the case of `N[C@@H](Cc1ccc(N(CCCl)CCCl)cc1)C(=O)O`, the T/C under setting [2] is 141 % of control. The survivor count is, setting by setting: (dose: 24.0 mg/kg/injection, schedule: Q01DX Z (ip), vehicle: carboxymethylcellulose (CMC)) 4 of 6; (dose: 36.0 mg/kg/injection, schedule: Q01DX Z (ip), vehicle: carboxymethylcellulose (CMC)) 4 of 6.
`CC(CCC(C)OS(C)(=O)=O)OS(C)(=O)=O` (stereo not drawn): under setting [3], the T/C was 140 % of control. The survivor count under setting [4] is listed as 6 of 6.
Consider `CN=C(NC)c1ccc(NC(=O)Nc2ccc(NC(=O)Nc3ccc(C(=NC)NC)cc3)cc2)cc1`, for which the survivor count (dose: 30.0 mg/kg/injection, schedule: Q01DX010 (ip), vehicle: saline) is 6 of 6 and the survivor count under setting [5] is reported as 4 of 6.
`Cn1c(N)nc2nc[nH]c2c1=S`: the T/C reads like this: (dose: 18.75 mg/kg/injection, schedule: Q01DX Z (ip), vehicle: carboxymethylcellulose (CMC)) 130 % of control; under setting [6], 127 % of control; under setting [7], 128 % of control [5 of 6 alive]; (dose: 125.0 mg/kg/injection, schedule: Q01DX Z (ip), vehicle: carboxymethylcellulose (CMC)) 138 % of control [4 of 6 alive]. Also, where the note is “dose: 250.0 mg/kg/injection, schedule: Q01DX Z (ip), vehicle: carboxymethylcellulose (CMC)”, the survivor count was 0 of 6.
With `CCn1cnc2c(=S)nc[nH]c21`, under setting [4], the T/C is 136 % of control. The survivor count reads like this: (dose: 200.0 mg/kg/injection, schedule: Q01DX Z (ip), vehicle: carboxymethylcellulose (CMC)) 6 of 6; under setting [8], 3 of 6.
As to `C#CCN(C)Cc1ccccc1`, the survivor count (dose: 400.0 mg/kg/injection, schedule: Q01DX010 (ip), vehicle: saline) is on record as 3 of 6.
Regarding `S=P(N1CC1)(N1CC1)N1CC1`, where the note is “dose: 3.0 mg/kg/injection, schedule: Q01DX010 (ip), vehicle: saline”, the T/C was 133 % of control.
For the compound `CCN(CC)CCNc1ccc(C)c2sc3ccccc3c(=O)c12`, the T/C (dose: 50.0 mg/kg/injection, schedule: Q01DX Z (ip), vehicle: water) is 136 % of control and the T/C (dose: 100.0 mg/kg/injection, schedule: Q01DX010 (ip), vehicle: saline) was 133 % of control. In addition, the survivor count (dose: 200.0 mg/kg/injection, schedule: Q01DX010 (ip), vehicle: saline) is 6 of 6 and the survivor count (dose: 200.0 mg/kg/injection, schedule: Q01DX Z (ip), vehicle: water) is listed as 1 of 6.
For the compound `O=C(O)CCCc1ccc(N(CCCl)CCCl)cc1`, the T/C (dose: 3.13 mg/kg/injection, schedule: Q01DX010 (ip), vehicle: saline) is on record as 97, 99, 102, 108 % of control; the T/C (dose: 6.25 mg/kg/injection, schedule: Q01DX010 (ip), vehicle: saline) is on record as 90, 95, 103, 110 % of control; the T/C (dose: 12.5 mg/kg/injection, schedule: Q01DX010 (ip), vehicle: saline) is listed as 108, 111, 113, 115 % of control. Also, the survivor count is, setting by setting: (dose: 25.0 mg/kg/injection, schedule: Q01DX010 (ip), vehicle: saline) 2 of 6, 4 of 6, 5 of 6; under setting [6], 4 of 6; under setting [4], 2 of 6.
`O=CN(O)CC(=O)O`: the survivor count (dose: 62.5 mg/kg/injection, schedule: Q01DX010 (ip), vehicle: saline) is recorded as 6 of 6.
On to `Cc1cc(N(CCCl)CCCl)ccc1N=Nc1ccccc1C(=O)O`, for which the T/C (dose: 4.0 mg/kg/injection, schedule: Q01DX Z (ip), vehicle: carboxymethylcellulose (CMC)) was 131 % of control; the T/C under setting [3] was 141 % of control; the T/C (dose: 12.5 mg/kg/injection, schedule: Q01DX Z (ip), vehicle: carboxymethylcellulose (CMC)) is 128 and 138 % of control; the T/C under setting [6] is 129 % of control. In addition, the survivor count reads like this: (dose: 40.0 mg/kg/injection, schedule: Q01DX010 (ip), vehicle: saline) 6 of 6; (dose: 75.0 mg/kg/injection, schedule: Q01DX Z (ip), vehicle: carboxymethylcellulose (CMC)) 4 of 6; under setting [7], 0 of 6.
`CC1CCOS(=O)O1` (stereo not drawn): the survivor count (dose: 80.0 mg/kg/injection, schedule: Q01DX010 (ip), vehicle: saline) is recorded as 6 of 6.
`Nc1ncnc2c1ccn2C1OC(CO)C(O)C1O` (stereo not drawn): the T/C under setting [1] is 134 % of control. For the same compound, the survivor count (dose: 3.75 mg/kg/injection, schedule: Q01DX Z (ip), vehicle: carboxymethylcellulose (CMC)) is 5 of 6 and the survivor count (dose: 5.0 mg/kg/injection, schedule: Q01DX Z (ip), vehicle: carboxymethylcellulose (CMC)) was 4 of 6.
With `O=P1(N(CCCl)CCCl)NCCCO1` (stereo not drawn), the T/C is 104, 113, 117, 129 % of control (dose: 11.3 mg/kg/injection, schedule: Q01DX010 (ip), vehicle: saline); 138 % of control (dose: 20.0 mg/kg/injection, schedule: Q01DX Z (ip), vehicle: saline); 130, 134, 138, 156 % of control (dose: 22.5 mg/kg/injection, schedule: Q01DX010 (ip), vehicle: saline); 158, 175, 177 % of control (2×) under setting [5]; 106, 115, 148, 169 % of control (dose: 90.0 mg/kg/injection, schedule: Q01DX010 (ip), vehicle: saline); 143 % of control (dose: 100.0 mg/kg/injection, schedule: Q01DX Z (ip), vehicle: saline). For the setting “dose: 180.0 mg/kg/injection, schedule: Q01DX010 (ip), vehicle: saline”, the T/C is 92, 97 (2×), 103 % of control [5 of 6 alive]. Besides, the survivor count (dose: 400.0 mg/kg/injection, schedule: Q01DX Z (ip), vehicle: saline) is recorded as 1 of 6.
Consider `CCCSc1ncnc2nc[nH]c12`, for which the T/C (dose: 175.0 mg/kg/injection, schedule: Q01DX Z (ip), vehicle: other) was 136 % of control. For the same compound, the survivor count runs as follows: under setting [8], 5 of 6 and 6 of 6; (dose: 350.0 mg/kg/injection, schedule: Q01DX Z (ip), vehicle: other) 0 of 6.
